Results on 29 molecules are retold here after patent US20240101684A1 (AIMED BIO, published 2024).

By UniProt entry, the sequences of proteins in these tests, tags left out. Residues count along the entry.
UniProt P22607, residues 23-806: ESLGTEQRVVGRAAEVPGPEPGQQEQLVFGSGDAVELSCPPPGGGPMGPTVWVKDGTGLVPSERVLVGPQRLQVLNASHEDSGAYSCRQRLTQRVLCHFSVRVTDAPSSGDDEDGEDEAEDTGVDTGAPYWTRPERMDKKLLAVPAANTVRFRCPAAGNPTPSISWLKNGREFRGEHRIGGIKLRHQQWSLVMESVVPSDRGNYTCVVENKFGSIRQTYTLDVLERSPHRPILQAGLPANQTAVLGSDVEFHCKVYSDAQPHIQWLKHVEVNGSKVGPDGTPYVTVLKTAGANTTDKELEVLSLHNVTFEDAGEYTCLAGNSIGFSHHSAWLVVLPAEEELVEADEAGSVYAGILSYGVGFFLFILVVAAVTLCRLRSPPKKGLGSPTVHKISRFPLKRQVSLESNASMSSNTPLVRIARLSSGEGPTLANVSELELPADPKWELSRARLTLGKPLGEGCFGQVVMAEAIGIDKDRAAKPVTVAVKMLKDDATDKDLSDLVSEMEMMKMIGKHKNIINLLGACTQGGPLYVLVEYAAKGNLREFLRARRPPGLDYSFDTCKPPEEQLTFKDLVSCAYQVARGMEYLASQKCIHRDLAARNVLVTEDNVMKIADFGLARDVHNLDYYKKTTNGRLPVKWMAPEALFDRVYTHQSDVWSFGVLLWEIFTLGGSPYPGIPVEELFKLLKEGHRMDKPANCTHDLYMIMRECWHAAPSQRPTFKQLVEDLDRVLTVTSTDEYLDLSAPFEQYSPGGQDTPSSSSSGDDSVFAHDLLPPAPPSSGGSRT

Positions count from the first letter of the chain named. These are yes or no findings as the source states them, for the method shown. Some binding calls cover weakened binding; strength is not graded here.

For assay [1], the target named is FGFR3 recombinant protein (isoform not given) (Homo sapiens (Human)) (UniProt P22607). Put plainly: affinity ELISA. On the technique in general: ELISA stands for enzyme-linked immunosorbent assay.
Assay [2] has as its target FGFR3(-TACC3) on FGFR3-TACC3 overexpressing brain tumor patient-derived cells (GBM15-682T) (human (brain tumor patient-derived cells)) (UniProt P22607). As to the kind of experiment: FACS, cell surface binding on FGFR3(-TACC3) overexpressing brain tumor patient-derived cells. On the technique in general: In flow cytometry, cells or beads pass a laser one at a time.
Assay [3] deals with FGFR3 recombinant protein (isoform not given) (Homo sapiens (Human)) (UniProt P22607). As to the kind of experiment: ELISA.

B1: F309#SSM009 (antibody, V domains shown)
VH: EVQLLESGGGLVQPGGSLRLSCAASGFTFSSYDMSWVRQAPGKGLEWVSGIYSGDGSIYYADSVKGRFTISRDNSKNTLYLQMNSLRAEDTAVYYCAKDAPTNEMSRFDYWGQGTLVTVSS
VL: QSVLTQPPSASGTPGQRVTISCSGSSSNIGNNYVSWYQQLPGTAPKLLIYADSKRPSGVPDRFSGSKSGTSASLAISGLRSEDEADYYCASWDYSLDGYVFGGGTKLTVL
In the case of B1, the binding entry in assay [1] is “binds”.

B2: FS307 (antibody, V domains shown)
VH: EVQLLESGGGLVQPGGSLRLSCAASGFTFSSYAISWVRQAPGKGLEWVSSIYYSGSTYYNPSLKSRFTISRDNSKNTLYLQMNSLRAEDTAVYYCAQGASWMDMWGQGTLVTVSS
VL: EIVLTQSPGTLSLSPGERATLSCQASQDISNYLNWYQQKPGQAPRLLIYDASNRATGIPDRFSGSGSGTDFTLTISRLEPEDFAVYYCQQSYSTPITFGQGTKVEIK
For the molecule B2, in assay [2], the binding result is recorded as “binds”.

B3: FS303 (antibody, V domains shown)
VH: EVQLLESGGGLVQPGGSLRLSCAASGFTFSNYWIGWVRQAPGKGLEWVSIIHPGGSDSRYSPSFQGRFTISRDNSKNTLYLQMNSLRAEDTAVYYCARWRAWFDSWGQGTLVTVSS
VL: B2 VL with Q24R, D28S, S30T, N31D, N34A, I96F
For B3, the binding result in assay [2] was “binds”.

B4: FS301 (antibody, V domains shown)
VH: EVQLLESGGGLVQPGGSLRLSCAASGFTFSNYAIHWVRQAPGKGLEWVSSIIPISGTANYAQKFQGRFTISRDNSKNTLYLQMNSLRAEDTAVYYCSRGGYGFDYWGQGTLVTVSS
VL: B2 VL with Q24R, D28S, N31T, Y32F, S52T, S91A, Y92N, T94F, I96L
For B4, the binding entry in assay [2] is given as “binds”.

B5: F303 (antibody, V domains shown)
VH: EVQLLESGGGLVQPGGSLRLSCAASGFTFSSYYMSWVRQAPGKGLEWVSAISPGSSNKYYADSVKGRFTISRDNSKNTLYLQMNSLRAEDTAVYYCAKDWSKFDYWGQGTLVTVSS
VL: QSVLTQPPSASGTPGQRVTISCSGSSSNIGSNDVTWYQQLPGTAPKLLIYDDNHRPSGVPDRFSGSKSGTSASLAISGLRSEDEADYYCGTWDASLSAYVFGGGTKLTVL
In the case of B5, the binding result in assay [2] was “binds”.

B6: F309#SSM036 (antibody, V domains shown)
VH: B1 VH with T102M, M105E
VL: B1 VL with D97S
In the case of B6, in assay [3], the binding entry is “binds”.

B7: F309#SSM026 (antibody, V domains shown)
VH: B1 VH with A100G, M105E
VL: B1 VL with D97S
For B7, in assay [3], the binding entry is “binds”.

B8: F311 (antibody, V domains shown)
VH: EVQLLESGGGLVQPGGSLRLSCAASGFTFSDYDMSWVRQAPGKGLEWVSAISSSDGSTYYADSVKGRFTISRDNSKNTLYLQMNSLRAEDTAVYYCAKHLPNFDYWGQGTLVTVSS
VL: B1 VL with P7L, S23T, Y33T, A51Y, K54H, A90G, S91T, Y94D, D97N
For B8, the binding entry in assay [2] is reported as “binds”.

B9: F304 (antibody, V domains shown)
VH: EVQLLESGGGLVQPGGSLRLSCAASGFTFSDYYMSWVRLAPGKGLEWVSAIYHGDGSTYYADSVKGRFTISRDNSKNTLYLQMNSLRAEDTAVYYCARDSRLCQTSGCYSDDAMDVWGQGTLVTVSS
VL: B1 VL with S23T, A51Y, D52N, K54H, S91T, Y94D, D97S
On to B9, for which, in assay [2], the binding entry is “binds”.

B10: F310 (antibody, V domains shown)
VH: EVQLLESGGGLVQPGGSLRLSCAASGFTFSNYYMSWVRQAPGKGLEWVSGIYYGSGNIYYADSVKGRFTISRDNSKNTLYLQMNSLRAEDTAVYYCARGGGGFDYWGQGTLVTVSS
VL: B5 VL with S31N, T35Y, D51A, T91A, S97N, A98G
As to B10, the binding entry in assay [2] was “binds”.

B11: F308 (antibody, V domains shown)
VH: B5 VH with S31N, A50G, S56G, N57S, K58I, S101T, K102R
VL: B1 VL with S23T, Y33A, A51D, A90G, S91A, D97S, G98A
With B11, the binding result in assay [2] is listed as “binds”.

B12: F309#SSM005 (antibody, V domains shown)
VH: B1 VH with M105P
VL: B1 VL with D97S
B12: the binding entry in assay [1] was “binds”.

B13: F309#SSM001 (antibody, V domains shown)
VH: B1 VH with A100Y
VL: B1 VL with D97S
For B13, the binding entry in assay [1] was “binds”.

B14: F309#SSM010 (antibody, V domains shown)
VH: B1 VH
VL: B1 VL with D97E
On to B14, for which, in assay [1], the binding result is on record as “binds”.

B15: F309#SSM024 (antibody, V domains shown)
VH: B1 VH with A100G, M105I
VL: B1 VL with D97S
notes: Combination variant of F309; also called #SSM24
As to B15, the binding entry in assay [3] is recorded as “binds”.

B16: F309#SSM234 (antibody, V domains shown)
VH: B1 VH with A100G, T102M, M105I
VL: B1 VL with D97S
notes: Combination variant of F309
In the case of B16, the binding result in assay [3] is listed as “binds”.

B17: F309#SSM034 (antibody, V domains shown)
VH: B1 VH with T102M, M105I
VL: B1 VL with D97S
notes: Combination variant of F309; also called #SSM34
With B17, the binding entry in assay [3] was “binds”.

B18: F309#SSM004 (antibody, V domains shown)
VH: B1 VH with M105I
VL: B1 VL with D97S
As to B18, the binding result in assay [1] was “binds”.

B19: F309#SSM003 (antibody, V domains shown)
VH: B1 VH with T102M
VL: B1 VL with D97S
In the case of B19, the binding result in assay [1] was “binds”.

B20: F309#SSM006 (antibody, V domains shown)
VH: B1 VH with M105E
VL: B1 VL with D97S
Take B20: the binding entry in assay [1] is “binds”.

B21: F309#SSM008 (antibody, V domains shown)
VH: B1 VH
VL: B1 VL with D97T
As to B21, the binding result in assay [1] is on record as “binds”.

B22: F309#SSM007 (antibody, V domains shown)
VH: B1 VH
VL: B1 VL with S91V, D97S
With B22, the binding entry in assay [1] was “binds”.

B23: F309#SSM002 (antibody, V domains shown)
VH: B1 VH with A100G
VL: B1 VL with D97S
Take B23: in assay [1], the binding entry was “binds”.

B24: F309#SSM023 (antibody, V domains shown)
VH: B1 VH with A100G, T102M
VL: B1 VL with D97S
notes: Combination variant of F309; also called #SSM23
As to B24, in assay [3], the binding entry is on record as “binds”.

B25: FS314 (antibody, V domains shown)
VH: EVQLLESGGGLVQPGGSLRLSCAASGFTFSNYPMSWVRQAPGKGLEWVSSVSGSGTSTYYADSVKGRFTISRDNSKNTLHLQMNSLRAEDTAVYYCARHTQRWGAFDPWGQGTLVTVSS
VL: QSVLTQPPSASGTPGQRVTISCGGDNIGTKSVHWYQQLPGTAPKLLIYGNSNRPSGVPNRFSGSKSGTSASLAISGLRSEDEADYYCQSYDSSLSGYVFGGGTKLTVL
As to B25, the binding result in assay [2] is given as “binds”.

B26: FS310 (antibody, V domains shown)
VH: EVQLLESGGGLVQPGGSLRLSCAASGFTFSIYGMHWVRQAPGKGLEWVSSIYYSGDTYYNPSLESRFTISRDNSKNTLYLQMNSLRAEDTAVYYCARDIGSSWGFDYWGQGTLVTVSS
VL: QSVLTQPPSASGTPGQRVTISCTAAASDIASNYVQWYQQLPGTAPKLLIYEDTKRPSGVPYRFSGSKSGTSASLAISGLRSEDEADYYCATWDDSLRGWVFGGGTKLTVL
Consider B26, for which the binding result in assay [2] was “binds”.

B27: FS313 (antibody, V domains shown)
VH: EVQLLESGGGLVQPGGSLRLSCAASGFTFSGYAMSWVRQAPGKGLEWVSGINWRGATTAYADSLKGRFTISRDNSKNTLYLQMNSLRAEDTAVYYCARSDYGLFDIWGQGTLVTVSS
VL: QSVLTQPPSASGAPGQRVTISCGGNNIGSKSVHWYQQLPGTAPKLLIYQDTKRPSGVPNRFSGSKSGTSASLAISGLRSEDEADYYCQSYDSRQLVFGGGTKLTVL
notes: also called FS313 IgG
Consider B27, for which the binding entry in assay [2] is on record as “binds”.

B28: FS316 (antibody, V domains shown)
VH: EVQLLESGGGLVQPGGSLRLSCAASGFTFSSYAMSWVRQAPGKGLEWVSGVSYSGNNKYYADSLQSRFTISRDNSKNTLYLQMNSLRAEDTAVYYCARNRNAIFDYWGQGTLVTVSS
VL: QSVLTQPPSASATPGQRVTISCSRNNIGSKSMHWYQQLPGTAPKLLIYDNNKRPSGVSDRFSGSKSGTSASLAISGLRSEDEADYYCSSYTSSSTLVFGGGTKLTVL
B28: the binding entry in assay [2] is on record as “binds”.

B29: FS312 (antibody, V domains shown)
VH: EVQLLESGGGLVQPGGSLRLSCAASGFTFSNYWMTWVRQAPGKGLEWVSWINTYSGNTNYNPSLKTRFTISRDNSKNTLYLQMNSLRAEDTAVYYCARGRGMFDYWGQGTLVTVSS
VL: QSVLTQPPSASGTPGQRVTISCSDNIGSKSVHWYQQLPGTAPKLLIYSNNQRPSGVSDRFSGSKSGTSASLAISGLRSEDEADYYCQSYDSSTVVFGGGTKLTVL
Take B29: the binding entry in assay [2] is given as “binds”.
